{
  "source": "the supplement of paper PMC11438910",
  "binders": {"B1": {"name": "4-127.1 (protein)", "chain 1": "QVQLQESGPGLVKPSETLSLTCAVSDYSINTGHGWTWIRQPPGKGLEWIGYIGGSSGSPNYNPSLKSRVTISKDTSKNELSLKLNSVTAADTAVYYCARRIPADRSGNDFWGQGVLVTVSS", "chain 2": "QSVLTQPPSVSGDPGQRVTISCTGSSSNIGGFYGYWYQQFPGTAPKLLIYDNNKRPSGISDRFSGSKSGTSASLTITGLQPGDEADYYCGSWDSSLSAHVFGSGTKLTVL"}},
  "experiment_in_all_cases": "fluorescence intensity of antibody binding to polysaccharide-coupled beads; higher = stronger binding",
  "key": {"[1]": {"biological_target": "pneumococcal polysaccharide Pn18B"}, "[2]": {"biological_target": "pneumococcal polysaccharide Pn18C"}, "[3]": {"biological_target": "pneumococcal polysaccharide Pn18F"}, "[4]": {"biological_target": "pneumococcal polysaccharide Pn19A"}, "[5]": {"biological_target": "pneumococcal polysaccharide Pn19B"}, "[6]": {"biological_target": "pneumococcal polysaccharide Pn19C"}, "[7]": {"biological_target": "pneumococcal polysaccharide Pn19F"}, "[8]": {"biological_target": "pneumococcal polysaccharide Pn2"}, "[9]": {"biological_target": "pneumococcal polysaccharide Pn20A"}, "[10]": {"biological_target": "pneumococcal polysaccharide Pn20B"}, "[11]": {"biological_target": "pneumococcal polysaccharide Pn21"}, "[12]": {"biological_target": "pneumococcal polysaccharide Pn22A"}, "[13]": {"details": "antibody concentration 2.8593 ng/mL"}, "[14]": {"details": "antibody concentration 15.2894 ng/mL"}, "[15]": {"details": "antibody concentration 81.7561 ng/mL"}, "[16]": {"details": "antibody concentration 437.17 ng/mL"}, "[17]": {"details": "antibody concentration 2337.65 ng/mL"}, "[18]": {"details": "antibody concentration 12500 ng/mL"}, "[19]": {"details": "antibody concentration 0.1 ng/mL"}, "[20]": {"details": "antibody concentration 0.534724 ng/mL"}},
  "note": "This is one part of the list. Most of these values are background signal.",
  "data": [
    {"binder": "B1", "values": [
      {"measurement": "fluorescence intensity", "setting": "[1]; [13]", "result": 30.5, "unit": "MFI"},
      {"measurement": "fluorescence intensity", "setting": "[1]; [14]", "result": 32, "unit": "MFI"},
      {"measurement": "fluorescence intensity", "setting": "[1]; [15]", "result": 31, "unit": "MFI"},
      {"measurement": "fluorescence intensity", "setting": "[1]; [16]", "result": 29.2, "unit": "MFI"},
      {"measurement": "fluorescence intensity", "setting": "[1]; [17]", "result": 33.5, "unit": "MFI"},
      {"measurement": "fluorescence intensity", "setting": "[1]; [18]", "result": 38, "unit": "MFI"},
      {"measurement": "fluorescence intensity", "setting": "[2]; [19]", "result": 18.5, "unit": "MFI"},
      {"measurement": "fluorescence intensity", "setting": "[2]; [20]", "result": 17.5, "unit": "MFI"},
      {"measurement": "fluorescence intensity", "setting": "[2]; [13]", "result": 19.5, "unit": "MFI"},
      {"measurement": "fluorescence intensity", "setting": "[2]; [14]", "result": 17.5, "unit": "MFI"},
      {"measurement": "fluorescence intensity", "setting": "[2]; [15]", "result": 19, "unit": "MFI"},
      {"measurement": "fluorescence intensity", "setting": "[2]; [16]", "result": 19.5, "unit": "MFI"},
      {"measurement": "fluorescence intensity", "setting": "[2]; [17]", "result": 23.8, "unit": "MFI"},
      {"measurement": "fluorescence intensity", "setting": "[2]; [18]", "result": 35, "unit": "MFI"},
      {"measurement": "fluorescence intensity", "setting": "[3]; [19]", "result": 23, "unit": "MFI"},
      {"measurement": "fluorescence intensity", "setting": "[3]; [20]", "result": 23.5, "unit": "MFI"},
      {"measurement": "fluorescence intensity", "setting": "[3]; [13]", "result": 23, "unit": "MFI"},
      {"measurement": "fluorescence intensity", "setting": "[3]; [14]", "result": 24.8, "unit": "MFI"},
      {"measurement": "fluorescence intensity", "setting": "[3]; [15]", "result": 22.5, "unit": "MFI"},
      {"measurement": "fluorescence intensity", "setting": "[3]; [16]", "result": 26, "unit": "MFI"},
      {"measurement": "fluorescence intensity", "setting": "[3]; [17]", "result": 27.5, "unit": "MFI"},
      {"measurement": "fluorescence intensity", "setting": "[3]; [18]", "result": 31.5, "unit": "MFI"},
      {"measurement": "fluorescence intensity", "setting": "[4]; [19]", "result": 17.5, "unit": "MFI"},
      {"measurement": "fluorescence intensity", "setting": "[4]; [20]", "result": 18.5, "unit": "MFI"},
      {"measurement": "fluorescence intensity", "setting": "[4]; [13]", "result": 18.8, "unit": "MFI"},
      {"measurement": "fluorescence intensity", "setting": "[4]; [14]", "result": 21, "unit": "MFI"},
      {"measurement": "fluorescence intensity", "setting": "[4]; [15]", "result": 18.5, "unit": "MFI"},
      {"measurement": "fluorescence intensity", "setting": "[4]; [16]", "result": 18, "unit": "MFI"},
      {"measurement": "fluorescence intensity", "setting": "[4]; [17]", "result": 22.5, "unit": "MFI"},
      {"measurement": "fluorescence intensity", "setting": "[4]; [18]", "result": 28.5, "unit": "MFI"},
      {"measurement": "fluorescence intensity", "setting": "[5]; [19]", "result": 30.2, "unit": "MFI"},
      {"measurement": "fluorescence intensity", "setting": "[5]; [20]", "result": 27.5, "unit": "MFI"},
      {"measurement": "fluorescence intensity", "setting": "[5]; [13]", "result": 27, "unit": "MFI"},
      {"measurement": "fluorescence intensity", "setting": "[5]; [14]", "result": 29, "unit": "MFI"},
      {"measurement": "fluorescence intensity", "setting": "[5]; [15]", "result": 26, "unit": "MFI"},
      {"measurement": "fluorescence intensity", "setting": "[5]; [16]", "result": 32.5, "unit": "MFI"},
      {"measurement": "fluorescence intensity", "setting": "[5]; [17]", "result": 32.5, "unit": "MFI"},
      {"measurement": "fluorescence intensity", "setting": "[5]; [18]", "result": 74.5, "unit": "MFI"},
      {"measurement": "fluorescence intensity", "setting": "[6]; [19]", "result": 27.2, "unit": "MFI"},
      {"measurement": "fluorescence intensity", "setting": "[6]; [20]", "result": 27, "unit": "MFI"},
      {"measurement": "fluorescence intensity", "setting": "[6]; [13]", "result": 24.8, "unit": "MFI"},
      {"measurement": "fluorescence intensity", "setting": "[6]; [14]", "result": 24.5, "unit": "MFI"},
      {"measurement": "fluorescence intensity", "setting": "[6]; [15]", "result": 25, "unit": "MFI"},
      {"measurement": "fluorescence intensity", "setting": "[6]; [16]", "result": 27.5, "unit": "MFI"},
      {"measurement": "fluorescence intensity", "setting": "[6]; [17]", "result": 27.5, "unit": "MFI"},
      {"measurement": "fluorescence intensity", "setting": "[6]; [18]", "result": 55, "unit": "MFI"},
      {"measurement": "fluorescence intensity", "setting": "[7]; [19]", "result": 26.5, "unit": "MFI"},
      {"measurement": "fluorescence intensity", "setting": "[7]; [20]", "result": 25, "unit": "MFI"},
      {"measurement": "fluorescence intensity", "setting": "[7]; [13]", "result": 25.5, "unit": "MFI"},
      {"measurement": "fluorescence intensity", "setting": "[7]; [14]", "result": 27, "unit": "MFI"},
      {"measurement": "fluorescence intensity", "setting": "[7]; [15]", "result": 24.5, "unit": "MFI"},
      {"measurement": "fluorescence intensity", "setting": "[7]; [16]", "result": 25.8, "unit": "MFI"},
      {"measurement": "fluorescence intensity", "setting": "[7]; [17]", "result": 33, "unit": "MFI"},
      {"measurement": "fluorescence intensity", "setting": "[7]; [18]", "result": 44, "unit": "MFI"},
      {"measurement": "fluorescence intensity", "setting": "[8]; [19]", "result": 20.2, "unit": "MFI"},
      {"measurement": "fluorescence intensity", "setting": "[8]; [20]", "result": 20, "unit": "MFI"},
      {"measurement": "fluorescence intensity", "setting": "[8]; [13]", "result": 21.5, "unit": "MFI"},
      {"measurement": "fluorescence intensity", "setting": "[8]; [14]", "result": 18, "unit": "MFI"},
      {"measurement": "fluorescence intensity", "setting": "[8]; [15]", "result": 19.5, "unit": "MFI"},
      {"measurement": "fluorescence intensity", "setting": "[8]; [16]", "result": 19.5, "unit": "MFI"},
      {"measurement": "fluorescence intensity", "setting": "[8]; [17]", "result": 22.5, "unit": "MFI"},
      {"measurement": "fluorescence intensity", "setting": "[8]; [18]", "result": 25, "unit": "MFI"},
      {"measurement": "fluorescence intensity", "setting": "[9]; [19]", "result": 25.2, "unit": "MFI"},
      {"measurement": "fluorescence intensity", "setting": "[9]; [20]", "result": 22, "unit": "MFI"},
      {"measurement": "fluorescence intensity", "setting": "[9]; [13]", "result": 24, "unit": "MFI"},
      {"measurement": "fluorescence intensity", "setting": "[9]; [14]", "result": 23.5, "unit": "MFI"},
      {"measurement": "fluorescence intensity", "setting": "[9]; [15]", "result": 22.5, "unit": "MFI"},
      {"measurement": "fluorescence intensity", "setting": "[9]; [16]", "result": 25, "unit": "MFI"},
      {"measurement": "fluorescence intensity", "setting": "[9]; [17]", "result": 25.5, "unit": "MFI"},
      {"measurement": "fluorescence intensity", "setting": "[9]; [18]", "result": 53.2, "unit": "MFI"},
      {"measurement": "fluorescence intensity", "setting": "[10]; [19]", "result": 24.8, "unit": "MFI"},
      {"measurement": "fluorescence intensity", "setting": "[10]; [20]", "result": 23.5, "unit": "MFI"},
      {"measurement": "fluorescence intensity", "setting": "[10]; [13]", "result": 24.2, "unit": "MFI"},
      {"measurement": "fluorescence intensity", "setting": "[10]; [14]", "result": 24.2, "unit": "MFI"},
      {"measurement": "fluorescence intensity", "setting": "[10]; [15]", "result": 22.5, "unit": "MFI"},
      {"measurement": "fluorescence intensity", "setting": "[10]; [16]", "result": 25, "unit": "MFI"},
      {"measurement": "fluorescence intensity", "setting": "[10]; [17]", "result": 25, "unit": "MFI"},
      {"measurement": "fluorescence intensity", "setting": "[10]; [18]", "result": 31, "unit": "MFI"},
      {"measurement": "fluorescence intensity", "setting": "[11]; [19]", "result": 19.2, "unit": "MFI"},
      {"measurement": "fluorescence intensity", "setting": "[11]; [20]", "result": 20.2, "unit": "MFI"},
      {"measurement": "fluorescence intensity", "setting": "[11]; [13]", "result": 18.2, "unit": "MFI"},
      {"measurement": "fluorescence intensity", "setting": "[11]; [14]", "result": 19, "unit": "MFI"},
      {"measurement": "fluorescence intensity", "setting": "[11]; [15]", "result": 19.5, "unit": "MFI"},
      {"measurement": "fluorescence intensity", "setting": "[11]; [16]", "result": 19.2, "unit": "MFI"},
      {"measurement": "fluorescence intensity", "setting": "[11]; [17]", "result": 20.5, "unit": "MFI"},
      {"measurement": "fluorescence intensity", "setting": "[11]; [18]", "result": 24, "unit": "MFI"},
      {"measurement": "fluorescence intensity", "setting": "[12]; [19]", "result": 22, "unit": "MFI"},
      {"measurement": "fluorescence intensity", "setting": "[12]; [20]", "result": 20.5, "unit": "MFI"},
      {"measurement": "fluorescence intensity", "setting": "[12]; [13]", "result": 20.5, "unit": "MFI"},
      {"measurement": "fluorescence intensity", "setting": "[12]; [14]", "result": 20, "unit": "MFI"}
    ]}
  ]
}
